In all, about 360,000 compounds went through this assay and about 7,500 (2.1%) were called active. The inconclusive results got no clear call from the source; some entries with a clear call stand among them for comparison. The call rests on the fitted dose curve; in most records, active means well fitted inhibition curve with a large enough effect; inconclusive means small, poorly fitted or top-dose-only effect, or effect the other way; inactive means flat fitted curve, though single readings scatter. A potency beside an inconclusive call is a rough fit, not a confirmed value.
Test: Nrf2 qHTS screen for inhibitors; further: nearly all actives have a fitted effect of over 60% in size
Conditions: A549 ARE-Fluc reporter, luciferase luminescence, 18-24 h; activity change, negative = inhibition: at 46 µM (top of the series)
Procedure, shortened: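 In this cell-based qHTS, ARE-driven firefly luciferase in A549 cells reports Nrf2 activity; the luminescent signal after BugLite lysis is the measured value, with a prior CellTiter-Fluor read for cell health.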
On the % scale 0 is the no-effect control and ±100 the full control effect; potency means the concentration at half of the fitted maximal effect.

Row | SMILES | Potency | activity change, negative = inhibition
1 | CCc1ccccc1NC(=O)Cn1ccn(Cc2ccccc2)c(=O)c1=O | inconclusive: 29.1 µM [falling, single point] | 
2 | CCN(CC)S(=O)(=O)c1ccc2c(c1)nc(SCC(=O)N1CCOCC1)n2-c1ccccc1OC | inconclusive: 25.9 µM [falling, partial curve, poor fit] | 
3 | CC1CCCCN1C(=O)CCS(=O)(=O)c1cc2c(cc1Cl)NC(=O)CO2 (stereo unspecified) | inconclusive: 20.6 µM [activator, single point] | 
4 | CN(CC(=O)Nc1cccc(S(=O)(=O)N(C)C)c1)Cc1ccccc1 | inconclusive: 20.6 µM [activator, partial curve] | 
5 | CC(=O)c1ccc(NC(=O)c2ccc3c(Cl)c4c(nc3c2)CCCC4)cc1 | inconclusive: 1.46 µM [falling, full curve, poor fit] | 
6 | O=C(CCc1nnc(Cc2ccc3c(c2)OCO3)o1)NCCc1ccccc1Cl | inconclusive: 16.4 µM [falling, partial curve, poor fit] | 
7 | Cc1ccc2c(c1)C(c1ccccc1)N(C(=O)CC(C)C)CC(=O)N2 (stereo unspecified) | inconclusive: 29.1 µM [falling, single point] | 
8 | CN(C1CC(C)(C)N(O)C(C)(C)C1)S(=O)(=O)CC12CCC(CC1=O)C2(C)C (stereo unspecified) | inconclusive: 0.184 µM [falling, full curve] | 
9 | CC(C)c1ccc2occ(CC(=O)N(Cc3ccc(F)cc3)C3CCS(=O)(=O)C3)c2c1 (stereo unspecified) | inconclusive: 29.1 µM [falling, single point] | 
10 | CCN(CC)N=Nc1[nH]nc2nc(C)cc(C)c12 | inconclusive: 3.26 µM [activator, single point] | 
11 | O=C(Nc1ccccc1)N(Cc1cccc(Cl)c1)c1ccccn1 | inactive | 
12 | CCCC(C)c1nnc(NC(=O)c2cc(C(=O)OC)cc([N+](=O)[O-])c2)s1 (stereo unspecified) | inconclusive: 20.6 µM [falling, partial curve, poor fit] | 
13 | O=C(c1ccc(Cl)c(Cl)c1)N1CCC(=O)N(C(COCc2ccc(Cl)cc2)Cc2ccccc2)CC1 (stereo unspecified) | inconclusive: 29.1 µM [falling, single point] | 
14 | CC(NC1CCCCC1)C(=O)NN=C(c1ccccc1)c1ccccc1 (stereo unspecified) | inconclusive: 3.66 µM [falling, partial curve, poor fit] | 
15 | CC(=O)c1ccc(N2CCN(C(=O)Nc3ccc(C(C)C)cc3)CC2)cc1 | active: 7.31 µM | 
16 | Cc1ccc(C(=O)N(C)Cc2ccc(N3CCOCC3)cc2)cc1S(=O)(=O)NCc1ccccc1 | inconclusive: 23.1 µM [falling, single point] | 
17 | O=C(CSc1cc(Cl)ccc1Cl)NC1CC1 | inconclusive: 29.1 µM [falling, single point] | 
18 | O=C(COc1ccc2ccccc2c1)N1CCCC1 | inconclusive: 3.26 µM [activator, full curve] | 
19 | COc1ccc(C2Nc3ccccc3C(=O)N2Cc2ccccc2OC)cc1COc1ccc(NC(C)=O)cc1 (stereo unspecified) | inactive | 
20 | Cc1cc(N)n2ncc(-c3ccccc3)c2n1 | inconclusive: 14.6 µM [activator, partial curve] | 
21 | O=C(Nc1ccccc1)N1CCn2c1nc1ccccc12 | inconclusive: 29.1 µM [activator, partial curve, poor fit] | 
22 | Cc1ccc(S(=O)(=O)N2[C@@H](c3ccc(Cl)cc3)C(C(=O)O)=CC[C@H]2c2ccc(Cl)cc2)cc1 | inconclusive: 29.1 µM [falling, single point] | 

Part of the list above in order of length of the SMILES, rising.
Row | SMILES | Potency | activity change, negative = inhibition
10 | CCN(CC)N=Nc1[nH]nc2nc(C)cc(C)c12 | inconclusive: 3.26 µM [activator, single point] | 
1 | CCc1ccccc1NC(=O)Cn1ccn(Cc2ccccc2)c(=O)c1=O | inconclusive: 29.1 µM [falling, single point] | 
15 | CC(=O)c1ccc(N2CCN(C(=O)Nc3ccc(C(C)C)cc3)CC2)cc1 | active: 7.31 µM | 
2 | CCN(CC)S(=O)(=O)c1ccc2c(c1)nc(SCC(=O)N1CCOCC1)n2-c1ccccc1OC | inconclusive: 25.9 µM [falling, partial curve, poor fit] | 

The list continues.

Row | SMILES | Potency | activity change, negative = inhibition
23 | COc1cccc(-n2c(SCC(=O)Nc3nc4ccccc4s3)nc3ccccc3c2=O)c1 | inactive | 
24 | CC(=O)Nc1ccccc1N(CC(O)Cn1c2ccccc2c2ccccc21)S(=O)(=O)c1ccc(C)cc1 (stereo unspecified) | active: 25.9 µM | 
25 | C=CCN(c1ccccc1)S(=O)(=O)c1cccc(C(=O)NCc2ccncc2)c1 | inconclusive: 20.6 µM [falling, single point] | 
26 | O=C(O)c1ccc(Cl)cc1Nc1nc2cc(Cl)ccc2o1 | inconclusive: 0.82 µM [activator, full curve, poor fit] | 
27 | COc1ccc(NS(=O)(=O)c2ccc3[nH]c4c(c3c2)CCCCC4)cc1 | active: 16.4 µM | 
28 | COc1ccc(-c2cn3ccc(C)cc3n2)cc1 | inconclusive: 29.1 µM [falling, single point] | 
29 | O=C(COc1ccc(-n2cnnn2)cc1)Nc1ccc(F)c(Cl)c1 | inconclusive: 0.0517 µM [falling, full curve, poor fit] | 
30 | Cc1cc(N/C=C2\CCCCC2=O)no1 | inconclusive: 16.4 µM [activator, single point] | 
31 | Cc1cc(NC(=O)COC(=O)c2n[nH]c3ccccc23)no1 | inconclusive: 20.6 µM [activator, partial curve, poor fit] | 
32 | CC(=O)Nc1ccc(C(=O)OCc2ccc(Br)cc2)cc1 | inactive | 
33 | O=C(c1cc([N+](=O)[O-])cc([N+](=O)[O-])c1)N1CCN(Cc2ccc3c(c2)OCO3)CC1 | inconclusive: 29.1 µM [falling, single point] | 
34 | C=CCOC(=O)c1ccc(-n2cnc(C)n2)nc1 | inconclusive: 9.2 µM [activator, partial curve] | 
35 | CC1CN(S(=O)(=O)c2ccc(C(=O)Nc3nnc(-c4ccco4)o3)cc2)CC(C)O1 (stereo unspecified) | inconclusive: 18.4 µM [falling, partial curve, poor fit] | 
36 | O=C(CSC(=S)N1CCCC1)NCCc1ccccc1 | inconclusive: 23.1 µM [activator, partial curve, poor fit] | 
37 | Cc1cc(C(=O)CSc2nncn2C)c(C)n1-c1ccccc1 | inconclusive: 4.61 µM [activator, partial curve] | 
38 | Cc1ccc(-c2nn[nH]n2)o1 | inactive | 
39 | CCn1nc(NC(=O)c2ccccn2)c2cc3cc(C)ccc3nc21 | inconclusive: 2.31 µM [activator, partial curve, poor fit] | 
40 | O=C(CCCc1c[nH]c2ccccc12)Nc1ccc2ccccc2c1 | inconclusive: 29.1 µM [falling, single point] | 
41 | COC(=O)c1ccc(Nc2c([N+](=O)[O-])c(=O)oc3ccccc23)cc1 | inconclusive: 16.4 µM [falling, single point] | 
42 | CC1Cc2cc(S(=O)(=O)CCC(=O)NCc3ccccc3Cl)ccc2N1C(=O)C1CC1 (stereo unspecified) | inactive | 
43 | COc1cc(/C=N\NC(=O)c2cccc(Cl)c2)ccc1Oc1ccc([N+](=O)[O-])cn1 | inconclusive: 29.1 µM [falling, single point] | 
44 | c1cn2c(NC3CCCC3)c(-c3ccc(N4CCOCC4)cc3)nc2cn1 | inactive | 

Row | SMILES | Potency | activity change, negative = inhibition
45 | Cc1ccc(NC(=O)CN(C)C(=O)Cn2ncc(Cl)c(Cl)c2=O)cc1 | inactive | 
46 | CCN(CC)Cc1c(NC(=O)c2ccccc2)sc(C)c1C | inactive | 
47 | COc1ccc(/C=N/NS(=O)(=O)c2ccc(C)cc2)cc1OC(=O)c1ccc(C)cc1 | active: 5.17 µM | 
48 | COc1cccc(NC(=O)Cn2cc(C(=O)c3ccco3)c3ccccc32)c1 | inconclusive: 23.1 µM [falling, single point] | 
49 | Cc1cc(C)n2nc(SCC#N)nc2n1 | inactive | 
50 | Cc1ccc(C(=O)Cn2nnc3ccccc32)cc1C | inconclusive: 8.2 µM [activator, partial curve] | 
51 | Cc1ccc(C(NC(=O)N2CCOCC2)=C(Cl)Cl)cc1F | inconclusive: 20.6 µM [falling, partial curve] | 
52 | N#C/C(=C(/O)CN1CCCCC1)c1nc(-c2ccc(Cl)cc2)cs1 | inconclusive: 6.51 µM [activator, single point] | 
53 | Cc1[nH]n(C(N)=S)c(=O)c1N=Nc1cccc(Cl)c1 | inconclusive: 4.11 µM [activator, partial curve] | 
54 | Cc1ccc(C)c(OCc2nc3ccccc3[nH]2)c1 | inconclusive: 25.9 µM [activator, partial curve] | 
55 | COc1ccccc1CN1CC(C(=O)NCc2cc(F)ccc2C)CCC1=O (stereo unspecified) | inconclusive: 4.61 µM [activator, full curve] | 
56 | COc1cccc(N2CCN(S(=O)(=O)c3cc4c(cc3C)N(C)CCO4)CC2)c1 | inconclusive: 5.8 µM [falling, full curve] | 
57 | O=C(NN=C1CCCC1)c1n[nH]c2c1CCC2 | inconclusive: 20.6 µM [activator, partial curve] | 
58 | CCOC(=O)N1CCC(c2cc(=O)n3[nH]c(C)c(-c4ccc(F)cc4)c3n2)CC1 | inconclusive: 11.6 µM [falling, partial curve] | 
59 | CCOc1cc(C2NN=C(c3ccccc3)S2)ccc1OCc1ccccc1Cl (stereo unspecified) | inconclusive: 7.31 µM [activator, partial curve] | 
60 | Cc1cc(C)cc(NC(=O)c2cc(S(=O)(=O)N3CCc4ccccc43)cn2C)c1 | inconclusive: 23.1 µM [falling, single point] | 
61 | CC(C)c1ccc(NC(=O)Cn2cc(S(=O)(=O)Cc3ccccc3Cl)c3ccccc32)cc1 | inconclusive: 29.1 µM [falling, single point] | 
62 | O=C(CSc1nccn1-c1ncc(C(F)(F)F)cc1Cl)c1ccc(Cl)cc1 | inconclusive: 16.4 µM [activator, partial curve] | 
63 | COc1cccc(NC(=O)Cn2c(=O)n(CCCCC(=O)NCc3ccccc3Cl)c(=O)c3ccccc32)c1 | inactive | 
64 | O=C(NC(=S)N1CCc2ccccc21)c1ccccc1Br | inconclusive: 16.4 µM [activator, partial curve] | 
65 | CCOC(=O)Nc1ccc2nc(Sc3ccc(Cl)cc3)sc2c1 | inconclusive: 20.6 µM [falling, single point] | 
66 | CCOc1ccccc1N1CCN(S(=O)(=O)c2ccc(C3CCCCC3)cc2)CC1 |  | inactive: 5.28% [at 9.27 µM]

Reference: PubChem BioAssay AID504444 (National Center for Advancing Translational Sciences (NCATS), 2011)
